Reference: paper PMC4813553
These are yes or no findings as the source states them, for the method shown. Binding seen in cells or lysates may run through a third protein. Binding calls can cover weak binding; strength is not graded here.

Protein sequences, listed by entry. Tags and fused reporters are not part of them. Lines headed by an entry give the natural chain unless they say otherwise; changes in a name come on top.
UniProt Q15811: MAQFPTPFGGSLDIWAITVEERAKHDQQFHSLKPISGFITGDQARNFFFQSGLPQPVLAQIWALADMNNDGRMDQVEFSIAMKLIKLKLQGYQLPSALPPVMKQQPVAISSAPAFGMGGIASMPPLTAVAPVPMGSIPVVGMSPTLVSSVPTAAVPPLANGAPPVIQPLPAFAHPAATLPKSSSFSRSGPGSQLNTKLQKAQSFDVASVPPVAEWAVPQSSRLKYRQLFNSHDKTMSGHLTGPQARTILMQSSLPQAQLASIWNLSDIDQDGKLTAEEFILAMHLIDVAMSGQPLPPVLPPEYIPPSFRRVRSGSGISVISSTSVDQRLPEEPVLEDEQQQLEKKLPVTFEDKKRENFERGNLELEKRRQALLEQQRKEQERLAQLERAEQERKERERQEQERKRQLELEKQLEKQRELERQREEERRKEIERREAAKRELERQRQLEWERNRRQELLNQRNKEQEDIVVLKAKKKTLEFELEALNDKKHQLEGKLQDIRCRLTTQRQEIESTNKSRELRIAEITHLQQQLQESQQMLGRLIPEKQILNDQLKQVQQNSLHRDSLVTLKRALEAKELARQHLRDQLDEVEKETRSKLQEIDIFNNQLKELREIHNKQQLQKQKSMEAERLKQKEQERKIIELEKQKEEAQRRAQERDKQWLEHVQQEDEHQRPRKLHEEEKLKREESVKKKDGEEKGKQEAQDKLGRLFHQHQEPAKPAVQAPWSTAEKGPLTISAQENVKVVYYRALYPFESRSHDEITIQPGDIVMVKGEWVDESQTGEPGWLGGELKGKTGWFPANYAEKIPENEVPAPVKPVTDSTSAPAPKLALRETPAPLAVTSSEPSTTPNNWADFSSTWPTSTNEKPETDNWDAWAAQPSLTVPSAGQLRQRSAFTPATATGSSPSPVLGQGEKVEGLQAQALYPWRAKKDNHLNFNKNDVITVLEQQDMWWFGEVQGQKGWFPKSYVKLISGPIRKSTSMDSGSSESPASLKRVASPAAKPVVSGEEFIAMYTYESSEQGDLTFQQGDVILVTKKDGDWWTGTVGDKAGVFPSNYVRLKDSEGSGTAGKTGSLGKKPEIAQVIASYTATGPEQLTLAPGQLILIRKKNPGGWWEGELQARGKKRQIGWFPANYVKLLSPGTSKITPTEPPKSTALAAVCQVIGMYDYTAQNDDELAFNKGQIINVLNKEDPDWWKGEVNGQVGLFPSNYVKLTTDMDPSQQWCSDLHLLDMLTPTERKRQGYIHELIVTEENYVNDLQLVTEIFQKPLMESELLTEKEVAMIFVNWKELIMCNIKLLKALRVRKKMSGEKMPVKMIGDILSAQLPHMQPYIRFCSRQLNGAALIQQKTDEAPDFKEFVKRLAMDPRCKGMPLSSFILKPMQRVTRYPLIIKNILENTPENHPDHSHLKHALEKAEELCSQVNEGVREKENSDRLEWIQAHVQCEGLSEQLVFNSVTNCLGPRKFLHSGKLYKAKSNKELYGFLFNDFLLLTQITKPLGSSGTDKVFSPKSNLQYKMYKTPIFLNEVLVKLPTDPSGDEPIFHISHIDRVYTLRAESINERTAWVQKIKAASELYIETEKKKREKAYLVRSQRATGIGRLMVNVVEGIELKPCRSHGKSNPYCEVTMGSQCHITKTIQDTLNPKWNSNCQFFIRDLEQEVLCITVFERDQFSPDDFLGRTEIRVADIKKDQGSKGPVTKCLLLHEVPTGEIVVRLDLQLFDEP
UniProt P46108: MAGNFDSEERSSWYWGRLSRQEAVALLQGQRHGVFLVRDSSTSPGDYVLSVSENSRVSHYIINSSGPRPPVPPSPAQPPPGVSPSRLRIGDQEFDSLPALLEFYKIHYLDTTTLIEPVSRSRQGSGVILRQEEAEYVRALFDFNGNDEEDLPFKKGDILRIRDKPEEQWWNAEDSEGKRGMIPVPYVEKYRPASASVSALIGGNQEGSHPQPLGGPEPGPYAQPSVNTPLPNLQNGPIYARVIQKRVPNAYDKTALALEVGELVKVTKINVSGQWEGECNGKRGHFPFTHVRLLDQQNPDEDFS

What was measured:
[1] = target: Intersectin 1 SH3-A domain, GST fusion (UniProt Q15811); test: pull-down; GST-SH3 domains coupled to glutathione-Sepharose; columns loaded with a Triton X-100 extract of crude synaptosomal fraction (P2) from rat forebrain; bound proteins eluted with SDS and immunoblotted with anti-PRRT2 or anti-dynamin I; only the target purified
[2] = target: SH3 domain of Crk, GST fusion (UniProt P46108); test: as above

binding [1] | binding [2] | Binder
binds | binds | Dynamin I, endogenous in rat forebrain synaptosomes (protein, UniProt P21575 1-864) MGNRGMEDLIPLVNRLQDAFSAIGQNADLDLPQIAVVGGQSAGKSSVLENFVGRDFLPRGSGIVTRRPLVLQLVNSTTEYAEFLHCKGKKFTDFEEVRLEIEAETDRVTGTNKGISPVPINLRVYSPHVLNLTLVDLPGMTKVPVGDQPPDIEFQIRDMLMQFVTKENCLILAVSPANSDLANSDALKIAKEVDPQGQRTIGVITKLDLMDEGTDARDVLENKLLPLRRGYIGVVNRSQKDIDGKKDITAALAAERKFFLSHPSYRHLADRMGTPYLQKVLNQQLTNHIRDTLPGLRNKLQSQLLSIEKEVDEYKNFRPDDPARKTKALLQMVQQFAVDFEKRIEGSGDQIDTYELSGGARINRIFHERFPFELVKMEFDEKELRREISYAIKNIHGIRTGLFTPDLAFEATVKKQVQKLKEPSIKCVDMVVSELTSTIRKCSEKLQQYPRLREEMERIVTTHIREREGRTKEQVMLLIDIELAYMNTNHEDFIGFANAQQRSNQMNKKKTSGNQDEILVIRKGWLTINNIGIMKGGSKEYWFVLTAENLSWYKDDEEKEKKYMLSVDNLKLRDVEKGFMSSKHIFALFNTEQRNVYKDYRQLELACETQEEVDSWKASFLRAGVYPERVGDKEKASETEENGSDSFMHSMDPQLERQVETIRNLVDSYMAIVNKTVRDLMPKTIMHLMINNTKEFIFSELLANLYSCGDQNTLMEESAEQAQRRDEMLRMYHALKEALSIIGDINTTTVSTPMPPPVDDSWLQVQSVPAGRRSPTSSPTPQRRAPAVPPARPGSRGPAPGPPPAGSALGGAPPVPSRPGASPDPFGPPPQVPSRPNRAPPGVPSRSGQASPSRPESPRPPFDL
binds | binds | Proline-rich transmembrane protein 2 (PRRT2), endogenous in rat forebrain synaptosomes (protein, UniProt D3ZFB6 1-344) MAASSSEVSEMKGVEDSSNTHSEGPRHSEEGMGPVQVVAENLDQPEALQSGPDTTAAPVDSGPKAELAPETTETPVETPETVQATDLSVNPGEDSKTCPSPKEACQEPASRPEVNREATAEQGAEQQSAAPPEPTSEQALQLNTQSDPQPTSQPPPKPPLQAEPPTQENPTTEVLTESTGEKQENGAVVPLQAGDGEEGPAPQPHSPPSTKTPPANGAPPRVLQKLVEEDRIGRAHGGHPGSPRGSLSRHPSSQLAGPGVEGGEGTQKPRDYIILAILSCFCPMWPVNIVAFAYAVMSRNSLQQGDVDGAQRLGRVAKLLSIVALVGGVLIIIASCVINLGVYK
